From article PMC8464836 (Biomolecules, 2021)

Assay: PAMPA assay (Polar Brain Lipid membrane)
Details: BBB permeability class predicted from PAMPA Pe

NS(=O)(=O)c1cc(C(=O)O)c(NCc2ccco2)cc1Cl [Furosemide, reference compound]
CNS (+/−): CNS − (CNS − (low BBB permeability predicted), Pe (10^−6 cm∙s^−1) < 2.0)
